Laboratory results from patent US20240376119A1, “SPIRO COMPOUND AND USE THEREOF” (CSPC Zhongqi Pharmaceutical Technology (Shijiazhuang) Co., …, priority 2021, published 2024).
Structures were worked out from names or drawings and are uncertain.

By UniProt entry, the sequences of proteins in these tests, tags left out.
UniProt Q06124, whole entry: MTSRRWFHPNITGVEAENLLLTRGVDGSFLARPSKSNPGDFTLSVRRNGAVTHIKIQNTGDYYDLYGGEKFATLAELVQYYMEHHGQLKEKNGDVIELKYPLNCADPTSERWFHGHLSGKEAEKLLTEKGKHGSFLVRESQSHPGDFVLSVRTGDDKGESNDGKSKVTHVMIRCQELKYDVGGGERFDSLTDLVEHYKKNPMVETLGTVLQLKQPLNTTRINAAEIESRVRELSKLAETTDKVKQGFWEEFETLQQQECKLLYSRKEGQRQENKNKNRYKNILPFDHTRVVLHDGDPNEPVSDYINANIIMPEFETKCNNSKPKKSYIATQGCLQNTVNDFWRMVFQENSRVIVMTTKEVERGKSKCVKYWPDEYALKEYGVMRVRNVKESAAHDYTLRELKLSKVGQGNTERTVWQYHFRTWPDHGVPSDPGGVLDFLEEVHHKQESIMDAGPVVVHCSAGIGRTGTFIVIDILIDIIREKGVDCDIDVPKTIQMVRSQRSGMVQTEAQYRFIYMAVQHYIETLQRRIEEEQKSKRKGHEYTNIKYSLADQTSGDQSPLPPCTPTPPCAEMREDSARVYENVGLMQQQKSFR

Target: SHP2 (Homo sapiens (Human), UniProt Q06124)
Test: Assay for the inhibitory effect on the SHP2 enzyme (DiFMUP substrate, fluorescence)
Details: read-out: Enzymatic Effect (IC50 on SHP2); SHP2 activated with SHP-2 activated peptide; DiFMUP 10 μM
Method: 1× Assay buffer was prepared. A compound to be tested was diluted with DMSO solvent to a stock concentration of 10 mM. The compound to be tested was first diluted to an intermediate concentration of 1000 μM and then further diluted in a 3-fold gradient using DMSO. Therefore, the intermediate gradient dilution concentration of the compound to be tested was: 1000 μM, 3-fold dilution, 11 gradients. 100 nL of each concentration of the compound in the 384-well LDV echo plate was transferred to a new 384-well ELISA plate (assay plate) (corning, Cat #4514) by the Echo550 instrument. The final concentration of the compound to be tested was 10 μM, 3-fold dilution, 11 gradients in duplicate after 10 μL of the reaction reagent was added. The final DMSO concentration was 1%. For both negative and positive control wells, 100 nL DMSO would be transferred.
A mixed liquor of 2× working SHP2 reagent (0.4 nM) and 0.5 μM SHP-2 activated peptide (BPS bioscience #79319-2) was prepared with 1× enzyme buffer. […] Read the plate at the excitation/emission wavelength of 358/455 nm after the ELISA plate was placed on the Spark machine.
The RLU values were collected from Spark and the inhibition rate was calculated with the RLU values. […]

For `[2H][C@@]1(N)c2ccccc2CC12CCN(c1nc(N)c(Sc3cccc(-c4ncco4)c3Cl)nc1C(C)=O)CC2`, which IC50 is on record?
The IC50 was under 20 nM.
